{"sequences": {"note": "Protein sequences, listed by entry. Tags and fused reporters are not part of them.", "UniProt P24937": "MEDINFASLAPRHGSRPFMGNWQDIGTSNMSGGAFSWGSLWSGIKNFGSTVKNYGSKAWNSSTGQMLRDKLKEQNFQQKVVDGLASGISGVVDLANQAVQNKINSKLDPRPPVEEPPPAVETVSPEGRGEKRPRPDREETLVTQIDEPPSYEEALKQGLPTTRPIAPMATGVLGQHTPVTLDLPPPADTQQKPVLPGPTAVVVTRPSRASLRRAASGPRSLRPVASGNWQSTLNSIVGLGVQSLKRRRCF"}, "source": "paper PMC2841620", "biological_target": "recombinant protein VI-wt (adenovirus serotype 5 capsid protein VI) (human adenovirus serotype 5 (Ad5)) (UniProt P24937)", "assay": "pull-down; recombinant protein VI-wt or VI-M1 coupled to beads; cytosolic extracts of 293T cells overexpressing GFP-tagged Nedd4 ligases; bound material detected by western blot with the respective antibodies; only the target purified", "note": "These are yes or no findings as the source states them, for the method shown. In cells and extracts the contact can be indirect. Binding calls can cover weak binding; strength is not graded here.", "data": [{"substance": "GFP-Nedd4.1 (from UniProt P46934-4) (enzyme)", "values": [{"measurement": "binding", "value": "binds"}]}]}
